Assay results reported in PubChem BioAssay AID651640 (Broad Institute, 2012).
Out of some 350,000 compounds screened, about 6,000 (1.7%) were called active. Inconclusive means that the source gave no clear call. Such entries were picked first, then a sample of the others. Rule as the data show it: active = CPE inhibition above about 20% (passing the limit was not always enough); inconclusive = no clear call, values can overlap the other calls; tested in BHK-21 cells.

Assay: protection of cells from dengue 2 killing – plate reader, single concentration, primary screen (AID 651640);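 also: 0% = median of neutral control wells and 100% = median of positive control wells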
Details: DENV2-infected cells, cytopathic effect rescue, at 9.99 µM, hits give high values

| Structure (SMILES) | CPE inhibition |
| --- | --- |
| Cc1cn([C@H]2C[C@H](O)[C@@H](CNCc3cccn3-c3nccs3)O2)c(=O)[nH]c1=O | inconclusive: 34.9% |
| C[C@@H]1CN([C@@H](C)CO)C(=O)c2c(c3ccccc3n2C)-c2ccccc2CO[C@@H]1CN(C)Cc1ccc(O)cc1 | inconclusive: 47.6% |
| COc1ccc(N2CC(C(=O)Nc3nnc(SCC(=O)Nc4ccc(NC(C)=O)cc4)s3)CC2=O)cc1 (stereo not drawn) | inconclusive: 72.4% |
| O=C(C[C@@H]1CC[C@H](NC(=O)Cc2ccccn2)[C@@H](CO)O1)NCCc1ccccc1 | inconclusive: 53.8% |
| CCC(=O)c1ccc(OCC(=O)NC2CCCC2)cc1 | inactive: -4.22% |
| Cc1ccc(Cc2c(C3CCCCC3)nc3ccc(Br)cn23)cc1 | inconclusive: 69% |
| Cc1noc(C)c1NC(=O)Nc1ccc2c(c1)CC(=O)N([C@H](C)CO)C[C@H](C)[C@H](CN(C)Cc1ccc(C(=O)O)cc1)O2 | inconclusive: 25.9% |
| CC(=O)N1CCN(C(=O)CNC(=O)c2cccs2)CC1 | inconclusive: 60.1% |
| CC(NC(=O)C1CCCC1)C1CC2CCC1C2 (stereo not drawn) | inactive: -4.97% |
| COc1cccc(C(=O)Nc2ccc3c(c2)OC[C@@H](C)N(C)C[C@@H](C)[C@H](OC)CN(C)C3=O)c1 | inactive: -8.3% |
| C[C@@H]1CCCCO[C@@H](CN(C)C(=O)Nc2ccc(C(F)(F)F)cc2)[C@H](C)CN([C@@H](C)CO)C(=O)c2cc(NC(=O)Nc3ccc(C(F)(F)F)cc3)ccc2O1 | inconclusive: 42.8% |
| O=C(N[C@H]1CC[C@@H](CCNC(=O)c2ccccc2F)O[C@@H]1CO)c1cnccn1 | inconclusive: 35.7% |
| CCCNC(=O)C[C@H]1CC[C@H]2[C@H](COc3ccc(NC(=O)c4ccccc4)cc3C(=O)N2C)O1 | inconclusive: 21.2% |
| O=C(Nc1ccc(Br)cc1)C(c1ccccc1)c1ccccc1 | inconclusive: 25.6% |
| O=C(c1ccco1)N1CCN(Cc2cccc([N+](=O)[O-])c2)CC1 | inconclusive: 23% |
| Cn1cnc2nc[nH]c2c1=S | inactive: 4.57% |
| CC1C(=O)N(Cc2cn(CCC3OCCO3)nn2)CCS(=O)(=O)N1Cc1ccc(-c2cccc(N(C)C)c2)cc1 (stereo not drawn) | active: 20.8% |
| C[C@H](NC(=O)C[C@@H]1C[C@H]2c3cc(NC(=O)NC4CCCC4)ccc3O[C@H]2[C@H](CO)O1)c1ccccc1 | active: 26.8% |
| Cn1c(=O)[nH]c(=O)c2c1nc(Br)n2Cc1ccc(Cl)cc1 | inconclusive: 51% |
| CNC(=O)C[C@H]1CC[C@H]2[C@H](COc3ccc(NC(=O)Nc4ccc(F)c(F)c4)cc3C(=O)N2C)O1 | inactive: 1.31% |
| COc1cc(N=c2ssnc2Cl)c(OC)cc1Cl | inconclusive: 55.3% |
| NC(=O)c1ccc(NC(=O)COC(=O)C2CC3C=CC2C3)cc1 (stereo not drawn) | inconclusive: 34% |
| CN(Cc1ccccc1)CC1CCCN(CCc2ccccc2F)C1 (stereo not drawn) | active: 39.5% |
| C[C@@H]1CN([C@H](C)CO)C(=O)c2cc(N(C)C)ccc2O[C@@H]1CN(C)C(=O)Nc1cccc2ccccc12 | inactive: 6.71% |
| Nc1ccccc1C#Cc1cnccn1 | inconclusive: 32.3% |

| Structure (SMILES) | CPE inhibition |
| --- | --- |
| Cc1ccc(Cl)cc1N1CCN(S(C)(=O)=O)CC1 | inactive: -5.27% |
| CN(C)CC(=O)N1[C@H](CO)[C@@H](c2ccccc2)C12CN(C(=O)c1ccccc1)C2 | active: 81% |
| C[C@@H]1CCCCO[C@H](CN(C)Cc2ccc(C(=O)O)cc2)[C@H](C)CN([C@@H](C)CO)C(=O)c2cc(NS(=O)(=O)c3cn(C)cn3)ccc2O1 | inactive: 14.3% |
| NC(=S)N=Nc1c(O)n(Cc2ccccc2)c2ccccc12 | active: 62.8% |
| CS(=O)(=O)N1[C@@H](C#N)[C@@H](c2ccccc2-c2ccccc2F)[C@@H]1CO | inactive: -1% |
| COc1ccccc1C(=O)NC(=O)CSc1ccc(C)c(C)c1 | inconclusive: 39.8% |
| C[C@@H]1CN([C@H](C)CO)C(=O)c2cc(NS(=O)(=O)c3ccc(Cl)cc3)ccc2O[C@@H](C)CCCCO[C@@H]1CN(C)S(=O)(=O)c1ccc(F)cc1 | inconclusive: 22.2% |
| Cc1cccc(-c2ccc([C@@H]3[C@@H](CO)N4C(=O)CN(C(=O)c5cccnc5)C[C@H]34)cc2)c1 | active: 20.8% |
| C[C@@H]1CN([C@H](C)CO)C(=O)c2cc(NC(=O)Nc3ccc(C(F)(F)F)cc3)ccc2O[C@@H]1CN(C)S(=O)(=O)c1ccccc1 | inactive: -5.88% |
| CCC(=O)N[C@H]1C=C[C@@H](CC(=O)NCc2cc(F)cc(F)c2)O[C@H]1CO | inactive: 7.83% |
| COc1ccc(N2C(=O)c3[nH]nc(-c4ccccc4)c3C2c2ccc(F)cc2)cc1 (stereo not drawn) | inconclusive: 58.2% |
| CC(=O)N1CC2(C1)[C@H](c1ccccc1)[C@@H](CO)N2Cc1ccccc1 | active: 24.2% |
| COc1ccc(CN2C(=O)C(C)Nc3ncnc(N4CCN(c5ccccc5)CC4)c32)cc1 (stereo not drawn) | inconclusive: 20.7% |
| Cc1ccc(NC(=O)COc2ccc(Br)cc2C)cc1 | inconclusive: 28.5% |
| COC(=O)C[C@H]1CC[C@H]2[C@H](COc3ccc(NS(=O)(=O)c4ccc(F)cc4)cc3C(=O)N2C)O1 | inactive: -3.22% |
| COc1ccccc1CCNC(=O)CN1C(=O)NC2(CCCC2)C1=O | inactive: -7.14% |
| COc1ccc(NC(=O)C(c2ccc(OC)cc2)n2c(=O)c(-c3ccco3)nc3ccccc32)cc1 (stereo not drawn) | inconclusive: 29.4% |
| O=C(NC1CCCC1)N[C@H]1C=C[C@H](CC(=O)N2CCOCC2)O[C@H]1CO | active: 56.8% |
| COC(=O)C1CCN(Cc2nnc(-c3ccccc3)o2)CC1 | inconclusive: 34% |
| Cc1cc(C)nc(NC(=O)c2ccc([N+](=O)[O-])o2)n1 | active: 92.8% |
| CCOC(=O)N1CCN(c2c(NCCN(C)Cc3ccccc3)c(=O)c2=O)CC1 | inconclusive: 31.3% |
| C[C@@H]1CN([C@@H](C)CO)C(=O)Cc2cc(NC(=O)NC3CCCCC3)ccc2O[C@H]1CN(C)CC1CC1 | active: 40.8% |
| CCCNC(=O)N(C)C[C@@H]1Oc2cc(C#CC3CC3)ccc2S(=O)(=O)N([C@H](C)CO)C[C@H]1C | inconclusive: 31.9% |
| CS(=O)(=O)N1C[C@H](O)COC[C@H]2O[C@@H](CC(=O)NCc3ccc(-c4ccccc4)cc3)CC[C@@H]21 | active: 78.8% |
| NNC(=O)CSc1nc(-c2ccccc2)cn1-c1ccccc1 | inconclusive: 24.1% |

| Structure (SMILES) | CPE inhibition |
| --- | --- |
| COc1ccc(NC(=O)N(C)C[C@H]2Oc3c(NC(=O)c4ccc(-c5nccs5)cc4)cccc3C(=O)N([C@@H](C)CO)C[C@H]2C)cc1 | inactive: 9.73% |
| C[C@@H]1CN([C@@H](C)CO)C(=O)c2cc(NC(=O)C3CCCCC3)ccc2O[C@H]1CN(C)C(=O)NC1CCCCC1 | inconclusive: 22.3% |
| CCCNC(=O)C1(C)CCN(C(=O)c2ccc3c(c2)CCO3)C1 (stereo not drawn) | inconclusive: 36.9% |
| COc1ccc([N+](=O)[O-])c(S(=O)(=O)c2ccccc2)n1 | inactive: 7.44% |
| C[C@@H]1CCCCO[C@@H](CN(C)C(=O)c2ccncc2)[C@@H](C)CN([C@@H](C)CO)C(=O)c2cc(NS(=O)(=O)c3cn(C)cn3)ccc2O1 | inactive: -3.52% |
| CCC(=O)NC[C@H]1[C@@H](c2ccccc2)[C@H](CO)N1C(=O)C1CCC1 | inactive: 15.2% |
| O=C(Cn1c(=O)cnc2ccccc21)Nc1ccccc1N1CCOCC1 | inconclusive: 24.3% |
| COc1ccc(C(=O)Nc2nc(CC(=O)NCCc3cccc(OC)c3)cs2)cc1 | inconclusive: 20.9% |
| CCCCNc1c(-c2ccc(OC)c(Sc3ccc(OC)cc3)c2)nc2ccc(Cl)cn12 | active: 30.7% |
| O=C(CSc1nccc(=O)[nH]1)NN(c1ccccc1)c1ccccc1 | inactive: 3.21% |
| C[C@@H]1CCCCO[C@@H](CN(C)C(=O)Nc2ccc3c(c2)OCO3)[C@@H](C)CN([C@H](C)CO)C(=O)c2cc(NS(=O)(=O)c3ccccc3)ccc2O1 | inconclusive: 31.5% |
| COC(=O)c1cn(C(=O)c2ccc(C)cc2)c2ccccc12 | inactive: 2.06% |
| COc1ccc(NC(=O)C2CCCN2S(=O)(=O)c2cccc3cccnc23)c(OC)c1 (stereo not drawn) | inconclusive: 30.7% |
| Cc1noc(C)c1S(=O)(=O)Nc1ccc2c(c1)C(=O)N([C@H](C)CO)C[C@@H](C)[C@@H](CN(C)C(=O)Nc1cccc3ccccc13)O2 | inactive: -2.83% |
| C[C@H](CO)N1C[C@H](C)[C@@H](CN(C)C(=O)Nc2ccc(C(F)(F)F)cc2)OCCCC[C@H](C)Oc2ccc(NC(=O)Nc3ccc(C(F)(F)F)cc3)cc2C1=O | inconclusive: 21.9% |
| O=C(CSc1nc2scc(-c3ccccc3)c2c(=O)[nH]1)NC1CCCCC1 | inactive: 3.59% |
| O=C(C[C@H]1C[C@@H]2c3cc(NC(=O)c4cccnc4)ccc3O[C@@H]2[C@@H](CO)O1)NCc1ccc(Oc2ccccc2)cc1 | inconclusive: 26.3% |
| N/C(=N\OC(=O)C1CCCCC1)c1ccncc1 | inactive: -2.45% |
| C[C@H]1CN([C@@H](C)CO)C(=O)Cc2cc(NC(=O)Nc3ccc(F)cc3)ccc2O[C@H]1CN(C)S(=O)(=O)c1ccccc1 | inactive: 1.86% |
| O=C(C[n+]1cccc(C(=O)Nc2ccccc2)c1)c1ccc(Cl)cc1 | inconclusive: 25.3% |
| C[C@H]1CN([C@@H](C)CO)C(=O)c2cc(NC(=O)Cn3cnnn3)ccc2O[C@@H]1CN(C)Cc1ccccc1 | inactive: 3.61% |
| O=C(NCC[C@H]1CC[C@@H](NS(=O)(=O)c2ccc(Cl)cc2)[C@@H](CO)O1)c1ccccc1F | inconclusive: 35.3% |
| CNC[C@H]1Oc2c(NC(=O)c3ccncc3)cccc2C(=O)N([C@@H](C)CO)C[C@H]1C | active: 38.5% |
